# Results deposited as PubChem BioAssay AID652259 (Drosophila RNAi Screening Center, 2013).
# Purpose: 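Knock-downs that push a Wingless-driven reporter up or down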 (primary screen)
# Cell system: Drosophila clone 8 imaginal disc epithelial cells
# Reagent: long dsRNA against Drosophila genes
# Treatment: pathway stimulated by co-transfected Wingless expression plasmid
# Measured: 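Dual luciferase reads per well after Wingless plasmid stimulation: reporter firefly light and Renilla control light; activity is firefly divided by Renilla, a ratio not deposited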
# Direction: firefly reporter light: higher = more Wg reporter light, before normalisation; Renilla control light: higher = more transfected or surviving cells
# Call rule: 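Strong candidates differ from their plate mean by at least two out of four per-plate statistical tests; weak candidates meet just one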
# Meaning of the calls: active = candidate regulator (raises or lowers reporter); inactive = not a candidate
# In all, the deposit lists about 22,000 reagents; shown is a random part of those that have a named target and a result. Of all reagents, 233 (1.1%) were called active. 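Light values are raw, unnormalised plate reads; the ratio scores behind the reporter calls were not deposited.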 A plus sign joins genes that one reagent is predicted to hit. No sequences are given here. The record does not give: the amount of reagent, the time to read-out, the dose of the treatment.
Target gene,dsRNA,"reporter change call, replicate 1","firefly reporter light, replicate 1","firefly reporter light, replicate 2","Renilla control light, replicate 1","Renilla control light, replicate 2",Call
CG15200,DRSC19647,,16872,,9061,,inactive
CG7166,DRSC11809,,15693,,5634,,inactive
CG13901,DRSC08371,,4730,,2074,,inactive
Mlf (Myelodysplasia/myeloid leukemia factor),DRSC07472,,2433,,1410,,inactive
fd3F (forkhead domain 3F),DRSC17843,,18547,,2953,,inactive
puf (puffyeye),DRSC15875,Wg reporter activity raised,31161,,6297,,active
Fur1 (Furin 1),DRSC13707,,5171,,1111,,inactive
Fur1 (Furin 1),DRSC16676,,2624,3648,1772,641,inactive
mus201 + Chrac-14,DRSC03568,,2712,8754,651,2877,inactive
mus201 + Chrac-14,DRSC03575,,1632,6184,384,2450,inactive
CG43308,DRSC05893,,22528,,14461,,inactive
hebe,DRSC05192,,19996,,9223,,inactive
hebe,DRSC06605,,12240,,4128,,inactive
hebe,DRSC21614,,7.72e5,7.47e5,3.81e5,3.52e5,inactive
Polr2J (RNA polymerase II subunit J),DRSC02995,,2737,8391,1392,3943,inactive
CG6511,DRSC10656,,1176,7104,1217,3572,inactive
CCT8 (Chaperonin containing TCP1 subunit 8),DRSC07130,,6203,,1856,,inactive
inaC (inactivation no afterpotential C),DRSC07632,,13963,,3362,,inactive
DIP-alpha (Dpr-interacting protein alpha),DRSC17891,,2917,,1081,,inactive
DIP-alpha (Dpr-interacting protein alpha),DRSC17892,,16181,,3898,,inactive
ND-15 (NADH dehydrogenase (ubiquinone) 15 kDa subunit),DRSC00311,,11408,,3053,,inactive
CG33090,DRSC01908,,6067,,982,,inactive
hd (humpty dumpty),DRSC12316,,12739,,4148,,inactive
CG9674,DRSC11088,,6224,,2211,,inactive
CG9674,DRSC11089,,5176,,2358,,inactive
Npc2h (Niemann-Pick type C-2h),DRSC14297,,9588,,3369,,inactive
Su(z)12,DRSC11293,,14565,,4983,,inactive
CG9213,DRSC20170,,2021,5920,816,1962,inactive
CG30082,DRSC22945,,7.13e5,6.72e5,3.39e5,96792,inactive
CG31525,DRSC12004,,2299,,1259,,inactive
CG31870,DRSC21681,,7.92e5,7.60e5,3.98e5,4.20e5,inactive
sti (sticky),DRSC09739,,5756,,2326,,inactive
sti (sticky),DRSC09740,,5001,,2074,,inactive
Sps2 (Selenophosphate synthetase 2),DRSC03441,,1449,5824,781,2745,inactive
CG8197,DRSC07105,,2609,8720,1056,3658,inactive
Cpr76Bb (Cuticular protein 76Bb),DRSC11061,,20512,,5833,,inactive
Cpr76Bb (Cuticular protein 76Bb),DRSC22870,,6.76e5,7.32e5,2.90e5,3.79e5,inactive
CG12398,DRSC19454,,16182,,7434,,inactive
amrt (amaretto),DRSC19378,,13075,,9584,,inactive
ova (ovaries absent),DRSC02879,,14832,,3481,,inactive
Tsp68C (Tetraspanin 68C),DRSC09295,,2016,,371,,inactive
CG8568,DRSC20113,,1784,5319,776,2201,inactive
Gasz,DRSC06829,,7842,,2461,,inactive
CG6362,DRSC07413,,6296,,2188,,inactive
CG31524,DRSC22014,,1.04e6,1.08e6,4.93e5,4.96e5,inactive
AstC-R1 (Allatostatin C receptor 1),DRSC10799,,5674,,4056,,inactive
Dhc64C (Dynein heavy chain 64C),DRSC08656,,6042,,1911,,inactive
ERp60 (Endoplasmic reticulum p60),DRSC07309,,8257,,1626,,inactive
CG13457,DRSC10004,,4641,,3561,,inactive

Entries above whose target name begins with S or s (4):
Target gene,dsRNA,"reporter change call, replicate 1","firefly reporter light, replicate 1","firefly reporter light, replicate 2","Renilla control light, replicate 1","Renilla control light, replicate 2",Call
Su(z)12,DRSC11293,,14565,,4983,,inactive
sti (sticky),DRSC09739,,5756,,2326,,inactive
sti (sticky),DRSC09740,,5001,,2074,,inactive
Sps2 (Selenophosphate synthetase 2),DRSC03441,,1449,5824,781,2745,inactive
